We go through one sequence from PMC6167110, “NgcE^Sco Acts as a Lower-Affinity Binding Protein of an ABC Transporter for the Uptake of N,N′-Diacetylchitobiose in Streptomyces coelicolor A3(2)” (Microbes and Environments, 2018).

The chains behind the UniProt entries cited, without tags or fusion partners. Where a name states a change or a piece, a line headed by the entry shows the natural chain unless it says otherwise.
UniProt Q9K492: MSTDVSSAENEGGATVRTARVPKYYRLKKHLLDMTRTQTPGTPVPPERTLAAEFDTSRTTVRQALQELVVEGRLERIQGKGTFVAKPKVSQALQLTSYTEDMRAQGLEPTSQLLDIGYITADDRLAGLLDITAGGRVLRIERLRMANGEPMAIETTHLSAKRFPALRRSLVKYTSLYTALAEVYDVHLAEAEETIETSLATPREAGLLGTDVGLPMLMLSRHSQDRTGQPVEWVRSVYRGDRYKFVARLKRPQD

In this data set the target is DasR-6His (Streptomyces coelicolor A3(2)) (UniProt Q9K492). Description: EMSA. The following applies: 1% agarose gel, pH and temperature not given, recombinant protein, protein details: C-terminal 6xHis, label: Cy5 on the printed strand. In general terms: Mobility shift assays separate free from complexed probe on a gel.

The exact form of at least one protein or probe is not confirmed. The comparison behind a weaker result is the experiment's own reference, which may not be listed here.

In the case of “CCGCCAAGCGAAAGTGGACTATACCTGTCGGCACTCCGGG (double strand) [drengcE]”, the binding result (GlcN-6P (mM range); probably uM) in 50 uL) is on record as “binds more weakly” and the binding result (GlcNAc-6P (mM range, stronger inhibitor than GlcN-6P); probably uM) in 50 uL) is “binds more weakly”.
